Screening data, single-dose tests

Amino acid sequences for entries named in this document (tags omitted). Residues count along the entry.
UniProt Q8IDJ8, 1-583: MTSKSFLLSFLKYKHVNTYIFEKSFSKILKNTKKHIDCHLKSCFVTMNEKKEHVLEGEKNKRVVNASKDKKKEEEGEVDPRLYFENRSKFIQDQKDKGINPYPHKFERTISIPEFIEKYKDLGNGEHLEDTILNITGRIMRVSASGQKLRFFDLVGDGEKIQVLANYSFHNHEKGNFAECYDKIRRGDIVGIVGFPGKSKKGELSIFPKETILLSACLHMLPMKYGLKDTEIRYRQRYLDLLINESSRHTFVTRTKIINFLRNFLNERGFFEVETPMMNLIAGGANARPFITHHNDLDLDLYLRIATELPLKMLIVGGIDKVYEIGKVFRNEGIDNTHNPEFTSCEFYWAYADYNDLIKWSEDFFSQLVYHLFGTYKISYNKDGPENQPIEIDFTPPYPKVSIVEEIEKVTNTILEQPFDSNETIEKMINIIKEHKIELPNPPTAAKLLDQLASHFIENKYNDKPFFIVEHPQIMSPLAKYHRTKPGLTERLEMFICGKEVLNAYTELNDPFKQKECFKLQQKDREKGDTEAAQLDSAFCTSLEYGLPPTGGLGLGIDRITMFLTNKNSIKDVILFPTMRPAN
UniProt I6X8D2, whole entry: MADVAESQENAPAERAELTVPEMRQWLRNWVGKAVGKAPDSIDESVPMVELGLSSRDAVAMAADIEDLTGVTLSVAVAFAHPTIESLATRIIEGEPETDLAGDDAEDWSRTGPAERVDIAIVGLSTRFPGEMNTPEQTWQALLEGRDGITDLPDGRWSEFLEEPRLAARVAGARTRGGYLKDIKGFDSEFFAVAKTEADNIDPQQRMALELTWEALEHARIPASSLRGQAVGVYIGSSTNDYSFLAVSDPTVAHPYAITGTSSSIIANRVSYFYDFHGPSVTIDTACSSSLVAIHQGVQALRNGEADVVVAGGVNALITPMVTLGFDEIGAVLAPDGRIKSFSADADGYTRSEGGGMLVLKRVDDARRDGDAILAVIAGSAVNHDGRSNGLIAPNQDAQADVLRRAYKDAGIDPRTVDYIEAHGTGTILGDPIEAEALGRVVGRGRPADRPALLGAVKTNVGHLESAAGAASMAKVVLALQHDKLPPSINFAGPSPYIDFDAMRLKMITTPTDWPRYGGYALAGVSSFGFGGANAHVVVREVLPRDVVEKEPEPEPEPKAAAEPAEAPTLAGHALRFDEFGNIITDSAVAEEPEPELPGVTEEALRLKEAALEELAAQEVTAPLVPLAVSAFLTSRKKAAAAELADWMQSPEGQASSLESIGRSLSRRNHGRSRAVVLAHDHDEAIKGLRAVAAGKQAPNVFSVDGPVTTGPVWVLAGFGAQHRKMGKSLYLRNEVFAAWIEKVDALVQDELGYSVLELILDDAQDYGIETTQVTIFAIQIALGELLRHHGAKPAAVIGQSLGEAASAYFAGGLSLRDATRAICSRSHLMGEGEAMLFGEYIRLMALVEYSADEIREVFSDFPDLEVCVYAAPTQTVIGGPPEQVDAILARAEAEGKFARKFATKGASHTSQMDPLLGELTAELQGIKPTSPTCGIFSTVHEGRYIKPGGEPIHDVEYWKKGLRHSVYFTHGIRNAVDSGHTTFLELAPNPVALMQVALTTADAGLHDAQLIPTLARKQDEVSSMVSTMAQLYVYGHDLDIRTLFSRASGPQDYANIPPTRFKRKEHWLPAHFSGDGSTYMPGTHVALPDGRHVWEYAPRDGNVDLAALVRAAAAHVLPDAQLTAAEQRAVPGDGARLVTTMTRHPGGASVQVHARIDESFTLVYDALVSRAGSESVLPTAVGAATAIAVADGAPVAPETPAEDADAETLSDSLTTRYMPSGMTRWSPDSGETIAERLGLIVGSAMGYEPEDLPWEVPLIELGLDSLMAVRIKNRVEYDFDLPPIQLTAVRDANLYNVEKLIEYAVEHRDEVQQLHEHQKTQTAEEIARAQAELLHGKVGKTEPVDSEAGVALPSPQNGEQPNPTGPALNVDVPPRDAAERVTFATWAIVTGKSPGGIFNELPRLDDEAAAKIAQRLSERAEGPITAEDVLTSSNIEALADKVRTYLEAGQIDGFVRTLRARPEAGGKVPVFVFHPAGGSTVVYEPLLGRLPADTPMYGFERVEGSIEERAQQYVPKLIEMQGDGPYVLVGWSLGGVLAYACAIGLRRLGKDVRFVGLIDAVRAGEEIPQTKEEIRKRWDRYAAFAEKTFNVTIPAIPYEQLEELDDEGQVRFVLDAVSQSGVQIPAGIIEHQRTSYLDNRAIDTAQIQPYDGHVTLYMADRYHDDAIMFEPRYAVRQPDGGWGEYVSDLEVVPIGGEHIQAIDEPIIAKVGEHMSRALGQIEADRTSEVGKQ
UniProt P9WFT3, whole entry: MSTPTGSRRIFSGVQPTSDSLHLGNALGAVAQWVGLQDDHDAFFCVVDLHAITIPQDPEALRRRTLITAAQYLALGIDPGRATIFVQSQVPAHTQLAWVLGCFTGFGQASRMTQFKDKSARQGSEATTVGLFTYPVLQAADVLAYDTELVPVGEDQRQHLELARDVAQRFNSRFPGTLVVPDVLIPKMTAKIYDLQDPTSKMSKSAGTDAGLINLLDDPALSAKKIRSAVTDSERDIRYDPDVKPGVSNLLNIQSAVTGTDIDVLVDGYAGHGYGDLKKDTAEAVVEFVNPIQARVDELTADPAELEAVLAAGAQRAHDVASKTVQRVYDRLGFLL
UniProt Q4DA54, 1-478: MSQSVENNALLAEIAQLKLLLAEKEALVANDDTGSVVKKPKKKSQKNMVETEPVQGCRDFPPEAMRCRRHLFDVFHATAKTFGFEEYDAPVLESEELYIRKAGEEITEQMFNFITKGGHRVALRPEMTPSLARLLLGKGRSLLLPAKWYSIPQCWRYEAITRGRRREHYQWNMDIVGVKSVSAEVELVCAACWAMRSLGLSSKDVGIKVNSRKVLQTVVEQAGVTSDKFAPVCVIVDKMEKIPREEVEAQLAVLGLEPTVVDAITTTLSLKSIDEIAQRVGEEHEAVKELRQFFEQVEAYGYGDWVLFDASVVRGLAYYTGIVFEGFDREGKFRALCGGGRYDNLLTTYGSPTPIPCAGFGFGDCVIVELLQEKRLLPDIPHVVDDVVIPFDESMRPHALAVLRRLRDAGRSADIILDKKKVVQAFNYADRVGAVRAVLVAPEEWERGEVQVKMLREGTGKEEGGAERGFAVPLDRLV

A: 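Lysine-tRNA ligase, Plasmodium falciparum 3D7 (UniProt Q8IDJ8). Enzyme assay of the cytosolic lysyl-tRNA synthetase in 384-well plates, read by luminescence. Compounds at 30 µM. Higher reads as stronger inhibition, judged from the few compounds that gave an IC50. Of about 69,000 compounds tested this way, about 49 (0.071%) reached 50% or more in at least one test.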
B: 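Enzyme assay of the thioesterase domain of polyketide synthase 13; the read-out is not stated. Target: Polyketide synthase Pks13, Mycobacterium tuberculosis (UniProt I6X8D2). Compounds at 30 µM. The record gives no direction; the compounds picked for IC50 retests had high values, so higher reads as stronger inhibition. About 67,000 compounds were tested under these conditions; 0.46% (about 300) showed 50% or more at least once.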
C: 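Tryptophan-tRNA ligase, Mycobacterium tuberculosis (UniProt P9WFT3). Enzyme assay of tryptophanyl-tRNA synthetase; the read-out is not stated. Tested at 10 µM. Higher most likely means stronger inhibition; the record gives no direction and few retests gave an IC50. Of about 65,000 compounds tested this way, about 64 (0.098%) reached 50% or more in at least one test.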
D: 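Histidine-tRNA ligase, Trypanosoma cruzi CL Brener (UniProt Q4DA54). Enzyme assay of histidyl-tRNA synthetase; the read-out is not stated. Concentration: 30 µM. Higher reads as stronger inhibition (inferred: compounds with an IC50 in retests scored well above the rest). About 69,000 compounds were tested under these conditions; 0.045% (about 31) showed 50% or more at least once.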

Results are given as percent effect. The controls that fix the scale are not given in the record; negative values are as filed. Compounds were drawn at random from those tested, without regard to their results.

compound: CCn1ccnc1CN1CCC(N(C)Cc2ncc(C)o2)C1 (stereo not given)
A: 5.252
B: -13.21
C: -2.787
D: 1.887

compound: C1CC(c2noc(C3CC3)n2)CN(Cc2noc(C3CC3)n2)C1 (stereo not given)
A: 4.383
B: -9.414
C: 0.07825
D: 4.511

compound: CCOC(=O)N1CCC(NC(C)Cc2cc(C)n[nH]2)CC1 (stereo not given)
A: 7.436
B: -7.615
C: -1.61
D: 0.8

compound: Cc1noc(C)c1CN1CCn2c(COC(C)C)nnc2C1
A: 5.866
B: 0.2527
C: -6.132
D: -1.031

compound: O=C(c1ccccn1)N1CCN(c2ccc(-c3cccnc3)nn2)CC1
A: -6.152
B: -4.181
C: -0.5344
D: 0

compound: CCCc1cc(NCc2nc(COC)no2)n2nccc2n1
A: 5.193
B: -14.8
C: 1.009
D: 8.247

compound: CCN1CC2(CCN(C(=O)c3nc4cc(C)ccn4c3F)CC2)CC1=O
A: 0.7166
B: -0.972
C: 0.122
D: -0.4292

compound: COc1cccc2c1N(C(=O)c1ccc(C)nc1)CCC2
A: 4.675
B: -23.14
C: 0.07886
D: 2.439

compound: COCCCn1nnc(C2(NC(=O)c3ccccc3)CCCC2)n1
A: 0.2205
B: -5.049
C: -1.348
D: 4.598

compound: CCn1c(Cn2ccnc2)nnc1C1CCN(Cc2ccc(C)o2)CC1
A: 6.266
B: 4.762
C: -4.257
D: 3.96

compound: Cc1nn(C)c(Cl)c1C1CCCN1Cc1nc(C2CC2)no1 (stereo not given)
A: 1.495
B: -9.001
C: -2.652
D: 4.046

compound: O=S(=O)(C1CC1)N1CCOC2(CCCN(c3cccc(F)c3)C2)C1 (stereo not given)
A: 8.08
B: -2.892
C: -0.5489
D: 5.747

compound: COCC1CC2(CCN(Cc3cccnc3)CC2)CN1c1ncccn1 (stereo not given)
A: 5.33
B: 9.758
C: -2.116
D: 11.76

compound: CCOC1CCN(C(=O)Nc2ccc(=O)n(C)c2)CC1
A: -2.095
B: 8.017
C: 28.48
D: 47.8

compound: O=C(CCN1CCNCC1)N1CCC2(CC1)c1ccccc1CC2O (stereo not given)
A: 6.239
B: -2.373
C: 2.826
D: -0.5025

compound: Cc1nc2n(n1)CC(Nc1nc(C(F)(F)F)nc3ccccc13)CC2 (stereo not given)
A: 7.321
B: -3.637
C: 0.2681
D: 6.878

The last 2 entries again:

| compound | A | B | C | D |
|---|---|---|---|---|
| `O=C(CCN1CCNCC1)N1CCC2(CC1)c1ccccc1CC2O` (stereo not given) | 6.239 | -2.373 | 2.826 | -0.5025 |
| `Cc1nc2n(n1)CC(Nc1nc(C(F)(F)F)nc3ccccc13)CC2` (stereo not given) | 7.321 | -3.637 | 0.2681 | 6.878 |

Data taken from ChEMBL document CHEMBL3988442, “University of Dundee, Small-Polar-MMV Screening Library” (2021).